Test results reported in patent US7964369.
These are yes or no findings as the source states them, for the method shown. In cells and extracts the contact can be indirect. A result given as binding can be weak or reduced; the word gives no strength. Sequences can lack the tags named with a protein.

Target: Ras-GRF1-Myc
Assay: co-immunoprecipitation from 293 cells co-transfected with GRAIL, USP8 and Ras-GRF1

binding: binds
B1: HA-USP8 (enzyme, mouse, UniProt Q80U87 1-1080, looked up, not shown: small tags and cut ends)
chain: MPAVASVPKELYLSSSLKDLNKKTEVKPEKTSTKNYIHSAQKIFKTAEECRLDRDEERAYVLYMKYVAVYNLIKKRPDFKQQQDYYLSILGPANIKKAIEEAERLSESLKLRYEEAEVRKQLEEKDRREEEQLQQQKRQEMGREDSGAAAKRSVENLLDSKTKTQRINGEKSEGAAAAERGAITAKELYTMMMDKNTSLIIMDARKIQDYQHSCILDSLSVPEEAISPGVTASWIEANLSDDSKDTWKKRGSVDYVVLLDWFSSAKDLLLGTTLRSLKDALFKWESKTVLRHEPLVLEGGYENWLLCYPQFTTNAKVTPPPRSRAEEVSVSLDFTYPSLEEPVPSKLPTQMPPPPIETNEKALLVTDQDEKLRLSTQPALAGPGAAPRAEASPIIQPAPATKSVPQVDRTKKPSVKLPEDHRIKSENTDQSGRVLSDRSTKPVFPSPTTMLTDEEKARIHQETALLMEKNKQEKELWDKQQKEQKEKLRREEQERKAGKTQDADERDSTENQHKAKDGQEKKDSKQTKTEDRELSADGAQEATGTQRQSKSEHEASDAKVPVEGKRCPTSEAQKRPADVSPASVSGELNAGKAQREPLTRARSEEMGRIVPGLPLGWAKFLDPITGTFRYYHSPTNTVHMYPPEMAPSSAPPSTPPTHKVKPQVPAERDREPSKLKRSYSSPDITQALQEEEKRRPAVTPMVNRENKPPCYPKAEISRLSASQIRNLNPVFGGSGPALTGLRNLGNTCYMNSILQCLCNAPHLADYFNRNCYQDDINRSNLLGHKGEVAEEFGIIMKALWTGQYRYISPKDFKVTIGKINDQFAGSSQQDSQELLLFLMDGLHEDLNKADNRKRHKEENNEHLDDLQAAEHAWQKHKQLNESIIVALFQGQFKSTVQCLTCRRRSRTFEAFMYLSLPLASTSKCTLQDCLRLFSKEEKLTDNNRFYCSHCRARRDSLKKIEIWKLPPVLLVHLKRFSYDGRWKQKLQTSVDFPLENLDLSQYVIGPKNSLKKYNLFSVSNHYGGLDGGHYTAYCKNAARQRWFKFDDHEVSDISVSSVRSSAAYILFYTSLGPRITDVAT
